# Source: patent US20060029946A1
# Chains of the proteins cited; added tags and fusions are not shown. Lines headed by an entry give the natural chain unless they say otherwise; changes in a name come on top.
# UniProt P17081: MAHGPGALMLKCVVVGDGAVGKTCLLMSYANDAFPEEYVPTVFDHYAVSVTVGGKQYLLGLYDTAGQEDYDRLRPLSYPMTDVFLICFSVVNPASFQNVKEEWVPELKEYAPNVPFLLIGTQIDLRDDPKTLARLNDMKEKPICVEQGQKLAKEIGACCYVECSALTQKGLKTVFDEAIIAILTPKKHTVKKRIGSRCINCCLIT
# UniProt P42768: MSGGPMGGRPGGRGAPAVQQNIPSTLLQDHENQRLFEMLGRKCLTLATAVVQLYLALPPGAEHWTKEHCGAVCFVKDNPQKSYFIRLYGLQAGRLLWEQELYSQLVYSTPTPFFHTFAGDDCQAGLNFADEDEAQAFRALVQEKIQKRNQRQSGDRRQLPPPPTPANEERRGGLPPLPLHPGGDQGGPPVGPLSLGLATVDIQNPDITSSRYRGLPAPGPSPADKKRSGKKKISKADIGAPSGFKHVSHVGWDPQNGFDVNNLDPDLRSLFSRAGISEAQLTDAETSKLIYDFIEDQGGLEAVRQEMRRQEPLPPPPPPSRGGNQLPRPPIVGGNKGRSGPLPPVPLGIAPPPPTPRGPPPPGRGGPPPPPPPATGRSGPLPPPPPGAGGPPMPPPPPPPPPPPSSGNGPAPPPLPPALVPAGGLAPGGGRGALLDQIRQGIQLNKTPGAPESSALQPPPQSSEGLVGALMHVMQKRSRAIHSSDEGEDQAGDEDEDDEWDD
# No constants are given. Whether binding was seen depends on the method and setting. Some entries that bind do so weakly or less than the wild type.
# Molecular target: TC10 (activated GTPase) (UniProt P17081)
# Experiment: fluorescence response with different activated GTPases
substance,measurement,value
WASP fragment F271C labeled with I-SO dye (from UniProt P42768 201-320),binding,binds
